Results are given in words; binding and its absence hold for the method and conditions named. Some entries that bind do so weakly or less than the wild type. For some of these results: Sequences can lack the tags named with a protein.
B1: 309 monomer scaffold, tagless (for crystallization) (designed binder)
chain: IEVKDVTDTTALITWSDEFGHYDGCELTYGIKDVPGDRTTIDLWWHSAWYSIGNLKPDTEYEVSLICYTDQEAGNPAKETFTT
B2: 311K4E-12 monomer scaffold, tagless (for crystallization) (designed binder)
chain: IEVEDVTDTTALITWTNRSSYSNLHGCELAYGIKDVPGDRTTIDLNQPYVHYSIGNLKPDTEYEVSLICLTTDGTYNNPAKETFTT
B3: Clone 309 - Parental clone isolated from naive Tn3 library (designed binder)
chain: AIEVKDVTDTTALITWSDEFGHYDGCELTYGIKDVPGDRTTIDLWWHSAWYSIGNLKPDTEYEVSLICYTDQEAGNPAKETFTTGGGTLGHHHHHHHH
notes: Secreted His8-tagged form purified on Ni-NTA
B4: Clone 311 - Parental clone isolated from naive Tn3 library (designed binder)
chain: AIEVKDVTDTTALITWTNRSSYYNLHGCELTYGIKDVPGDRTTIDLSSPYVHYSIGNLKPDTEYEVSLICLTTDGTYSNPAKETFTTGGGTLGHHHHHHHH
B5: Clone 343 - Affinity Mature variant (designed binder)
chain: AIEVKDVTDTTALITWLDDWGSYHVCELTYGIKDVPGDRTTIDLWYHQAWYSIGNLKPDTEYEVSLICRRGDMSSNPAKETFTTGGGTLGHHHHHHHH
notes: Secreted His8-tagged form
B6: Clone 340 - Affinity Mature variant (designed binder)
chain: AIEVKDVTDTTALITWSDDFDNYEWCELTYGIKDVPGDRTTIDLWYHMAWYSIGNLKPDTEYEVSLICRRGDMSSNPAKETFTTGGGTLGHHHHHHHH
notes: Secreted His8-tagged form
B7: Clone 347 - Affinity Mature variant (designed binder)
chain: AIEVKDVTDTTALITWSDEVGQYVGCELTYGIKDVPGDRTTIDLWYHMAWYSIGNLKPDTEYEVSLICRRGDMSSNPAKETFTTGGGTLGHHHHHHHH
notes: Secreted His8-tagged form
B8: Clone 341 - Affinity Mature variant (designed binder)
chain: AIEVKDVTDTTALITWSDDFADYVWCELTYGIKDVPGDRTTIDLWWHSAWYSIGNLKPDTEYEVSLICRRGDMSSNPAKETFTTGGGTLGHHHHHHHH
B9: Clone 342 - Affinity Mature variant (w/WT FG loop) (designed binder)
chain: AIEVKDVTDTTALITWSDDFGEYVWCELTYGIKDVPGDRTTIDLWYHHAHYSIGNLKPDTEYEVSLICRRGDMSSNPAKETFTTGGGTLGHHHHHHHH
notes: Secreted His8-tagged form
B10: Clone 348 - Affinity Mature variant (designed binder)
chain: AIEVKDVTDTTALITWSDDIGLYVWCELTYGIKDVPGDRTTIDLWFHQAWYSIGNLKPDTEYEVSLICRRGDMSSNPAKETFTTGGGTLGHHHHHHHH
notes: Secreted His8-tagged form
B11: Clone 346 - Affinity Mature variant (designed binder)
chain: AIEVKDVTDTTALITWSDDFEEYVVCELTYGIKDVPGDRTTIDLWWHSAWYSIGNLKPDTEYEVSLICRRGDMSSNPAKETFTTGGGTLGHHHHHHHH
notes: Secreted His8-tagged form
B12: Clone 344 - Affinity Mature variant (designed binder)
chain: AIEVKDVTDTTALITWSDEVGDYVVCELTYGIKDVPGDRTTIDLWYHMAWYSIGNLKPDTEYEVSLICRRGDMSSNPAKETFTTGGGTLGHHHHHHHH
B13: Clone 345 - Affinity Mature variant (designed binder)
chain: AIEVKDVTDTTALITWSDDFAEYVGCELTYGIKDVPGDRTTIDLWWHSAWYSIGNLKPDTEYEVSLICRRGDMSSNPAKETFTTGGGTLGHHHHHHHH
notes: Secreted His8-tagged form
B14: Clone 349 - Affinity Mature variant (designed binder)
chain: AIEVKDVTDTTALITWSDEHAEFIGCELTYGIKDVPGDRTTIDLWWHSAWYSIGNLKPDTEYEVSLICRRGDMSSNPAKETFTTGGGTLGHHHHHHHH
notes: Secreted His8-tagged form
B15: Clone 311K4E_15 - Clone Variant from second round of affinity maturation (designed binder)
chain: AIEVEDVTDTTALITWTNRSSYANYHHCELTYGIKDVPGDRTTIDLELYVHYSIGNLKPDTEYEVSLICLTTDGTYSNPAKETFTTGGGTLGHHHHHHHH
notes: Secreted His8-tagged form
B16: Clone 311K4E_2 - Clone Variant from second round of affinity maturation (designed binder)
chain: AIEVEDVTDTTALITWTNRSSYSHLDGCELTYGIKDVPGDRTTIDLSAAIYVHYSIGNLKPDTEYEVSLICLTTDGTYSNPAKETFTTGGGTLGHHHHHHHH
B17: Clone 311K4E_19 - Clone Variant from second round of affinity maturation (designed binder)
chain: AIEVEDVTDTTALITWTHRSAYSNHSFCELTYGIKDVPGDRTTIDLNTPYVHYSIGNLKPDTEYEVSLICLTTDGTYSNPAKETFTTGGGTLGHHHHHHHH
B18: Clone 311K4E_13 - Clone Variant from second round of affinity maturation (designed binder)
chain: AIEVEDVTDTTALITWINRSSYANLHGCELTYGIKDVPGDRTTIDLNSPYVHYSIGNLKPDTEYEVSLICLTTDGTYSNPAKETFTTGGGTLGHHHHHHHH
B19: Clone 311K4E_1 - Clone Variant from second round of affinity maturation (designed binder)
chain: AIEVEDVTDTTALITWINRSYYADLHGCELTYGIKDVPGDRTTIDLDQIYVHYSIGNLKPDTKYEVSLICLTTDGTYSNPAKETFTTGGGTLGHHHHHHHH
B20: Clone 311K4E_20 - Clone Variant from second round of affinity maturation (designed binder)
chain: AIEVEDVTDTTALITWTNRSLYANFHGCELTYGIKDVPGDRTTIDLEQVYVHYSIGNLKPDTEYEVSLICLTTDGTYSNPAKETFTTGGGTLGHHHHHHHH
B21: Clone 311K4E_4 - Clone Variant from second round of affinity maturation (designed binder)
chain: AIEVEDVTDTTALITWTNRSSYSNHLGCELAYGIKDVPGDRTTIDLNNIYVHYSIGNLKPDTEYEVSLICLTTDGTYSNPAKETFTTGGGTLGHHHHHHHH
B22: Clone 311K4E_8 - Clone Variant from second round of affinity maturation (designed binder)
chain: AIEVEDVTDTTALITWTNRSSYAYLHGCELAYGIKDVPGDRTTIDLNQPYVHYSIGNLKPDTEYEVSLICLTTDGTYSNPAKETFTTGGGTLGHHHHHHHH
B23: Clone 311K4E_16 - Clone Variant from second round of affinity maturation (designed binder)
chain: AIEVEDVTDTTALITWTNRSSYSDLPGCELTYGIKDVPGDRTTIDLSSPYVHYSIGNLKPDTEYEVSLICLTTDGTYSNPAKETFTTGGGTLGHHHHHHHH
B24: Clone 311K4E_5 - Clone Variant from second round of affinity maturation (designed binder)
chain: AIEVEDVTDTTALITWTNRSSYSNFHGCELAYGIKDVPGDRTTIDLNSPYVHYSIGNLKPDTEYEVSLICLTTDGTYSNPAKETFTTGGGTLGHHHHHHHH
B25: Clone 311K4E_14 - Clone Variant from second round of affinity maturation (designed binder)
chain: AIEVEDVTDTTALITWTARSAYSHHHYCELTYGIKDVPGDRTTIDLRQPYVHYSIGNLKPDTEYEVSLICLTTDGTYSNPAKETFTTGGGTLGHHHHHHHH
B26: Clone 311K4E_21 - Clone Variant from second round of affinity maturation (designed binder)
chain: AIEVEDVTDTTALITWTNRSSYSNLPGCELTYGIKDVPGDRTTIDLNQVYVHYSIGNLKPDTEYEVSLICLTTDGTYSNPAKETFTTGGGTLGHHHHHHHH
B27: Clone 311K4E_9 - Clone Variant from second round of affinity maturation (designed binder)
chain: AIEVEDVTDTTALITWINRSSYANLHGCELTYGIKDVPGDRTTIDLSSPYVHYSIGNLKPDTEYEVSLICLTTDGTYSNPAKETFTTGGGTLGHHHHHHHH
B28: Clone 311K4E_10 - Clone Variant from second round of affinity maturation (designed binder)
chain: AIEVEDVTDTTALITWTNRSSYANYHGCELAYGIKDVPGDRTTIDLNQPYVHYSIGNLKPDTEYEVSLICLTTDGTYSNPAKETFTTGGGTLGHHHHHHHH
B29: Clone 311K4E_7 - Clone Variant from second round of affinity maturation (designed binder)
chain: AIEVEDVTDTTALITWTNRSFYSNLHGCELTYGIKDVPGDRTTIDLNQPYVHYSIGNLKPDTEYEVSLICLTTDGTYSNPAKETFTTGGGTLGHHHHHHHH
B30: Clone 311K4E_11 - Clone Variant from second round of affinity maturation (designed binder)
chain: AIEVEDVTDTTALITWTNRSSYANLPGCELTYGIKDVPGDRTTIDLNSPYVHYSIGNLKPDTEYEVSLICLTTDGTYSNPAKETFTTGGGTLGHHHHHHHH
notes: Secreted His8-tagged form
B31: Clone 311K4E_12 - Clone Variant from second round of affinity maturation (designed binder)
chain: AIEVEDVTDTTALITWTNRSSYSNLHGCELAYGIKDVPGDRTTIDLNQPYVHYSIGNLKPDTEYEVSLICLTTDGTYNNPAKETFTTGGGTLGHHHHHHHH
notes: Secreted His8-tagged form
B32: Clone 311K4E_3 - Clone Variant from second round of affinity maturation (designed binder)
chain: AIEVEDVTDTTALITWINRSSYHNFPHCELAYGIKDVPGDRTTIDLNSPYVHYSIGNLKPDTEYEVSLICLTTDGTYSNPAKETFTTGGGTLGHHHHHHHH
notes: Secreted His8-tagged form
B33: 311 variant with the FG loop changed to the parent Tn3 FG loop sequence (designed binder)
chain: AIEVKDVTDTTALITWTNRSSYYNLHGCELTYGIKDVPGDRTTIDLSSPYVHYSIGNLKPDTEYEVSLICRRGDMSSNPAKETFTTGGGTLGHHHHHHHH

Protein sequences, listed by entry. Tags and fused reporters are not part of them. Residues count along the entry.
UniProt P29965, residues 47-261: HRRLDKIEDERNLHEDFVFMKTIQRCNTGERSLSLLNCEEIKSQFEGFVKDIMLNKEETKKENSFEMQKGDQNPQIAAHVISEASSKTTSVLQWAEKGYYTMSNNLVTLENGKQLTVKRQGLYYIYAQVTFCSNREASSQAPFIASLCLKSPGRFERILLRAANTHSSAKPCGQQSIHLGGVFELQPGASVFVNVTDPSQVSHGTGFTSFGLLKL

Target: Recombinant human soluble CD40L (113-261, UNIPROT: P29965) with N-terminal 6xHis-tag (human) (UniProt P29965)
Test: co-crystal structure

binding, binds:
B1, B2

Target: Recombinant human CD40L (Human MegaCD40L; Axxora) (human) (UniProt P29965)
Test: plate binding assay: anti-His capture of Tn3, biotinylated human MegaCD40L, SA-HRP (original variant as reference)

binding, binds:
B3, B4

Target: Recombinant human CD40L (Human MegaCD40L; Axxora) (human) (UniProt P29965)
Test: soluble protein screening assay for CD40L binding (anti-His capture, biotinylated human MegaCD40L)

binding, binds:
B5, B6, B7, B8, B9, B10, B11, B12, B13, B14, B15, B16, B17, B18, B19, B20, B21, B22, B23, B24, B25, B26, B27, B28, B29, B30, B31, B32

Target: Recombinant human CD40L (Human MegaCD40L; Axxora) (human) (UniProt P29965)
Test: capture ELISA: His-tagged Tn3 captured on anti-His antibody, biotinylated Human MegaCD40L detected with SA-HRP

binding, binds:
B3, B4, B33

Target: Recombinant human soluble CD40L (113-261, UNIPROT: P29965) with N-terminal 6xHis-tag (human) (UniProt P29965)
Test: co-crystal structure of 342 and 311K4E-12 with CD40L

binding, binds:
B2

Target: Recombinant human CD40L (Human MegaCD40L; Axxora) (human) (UniProt P29965)
Test: plate binding assay: anti-His capture of Tn3, biotinylated human MegaCD40L, SA-HRP

binding, binds:
B33
